# Patent publication US20220047556A1 (INSERM (Institut National de la Santé et de la Recherche …, priority 2018, published 2022)
# System: PCs activity (MT1-MMP cleavage)
# Conditions: Western blot, FIG. 1G
smiles,measurement,value
"Clc1ccc(CSC(Cn2ccnc2)c2ccc(Cl)cc2Cl)cc1 (stereo not shown) [Sulconazole, 1-[2-[(4-chlorophenyl)methylsulfanyl]-2-(2,4-dichlorophenyl)ethyl]imidazole]","cleavage of MT1-MMP (accumulation of unprocessed form, 63 KDa)",inhibits the cleavage of MT1-MMP
